Measured data: PubChem BioAssay AID1259308 (NCATS, 2017)

Purpose: 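Knock-downs that increase output of a recombinant reporter protein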 (primary screen)
Cells: human HEK293 embryonic kidney cells stably expressing firefly luciferase (HEK-CMV-Luc2-Hygro)
Knock-down reagent: single siRNA against human genes, 0.8 pmol siRNA per well
Duration: 72 h
Measured: 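Luciferase light (ONE-Glo) measured on one replicate plate set and viability (CellTiter-Glo) on the other, scaled to a negative control siRNA, with robust z-scores and luciferase per cell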
Direction: total luciferase, z-score and total luciferase, % of control: higher = more reporter protein produced; luciferase per cell, z-score: higher = more reporter output per viable cell; viable cells, % of control: higher = more viable cells
Call rule: 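An siRNA counts as active if its total luciferase robust z-score exceeds 3; genes with two or more such siRNAs out of three were retested with fresh siRNAs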
Meaning of the calls: active = raised luciferase; inactive = no rise
Here is an unselected part of about 59,000 reagents tested. About 1,510 of all reagents (2.6%) count as active. 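Calls use total luciferase alone and ignore viability, so some active siRNAs may act by altering cell number.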 Reagents against one gene are numbered here.

| gene | reagent | total luciferase, z-score | total luciferase, % of control | luciferase per cell, z-score | viable cells, % of control | call |
| --- | --- | --- | --- | --- | --- | --- |
| LGI3 (leucine rich repeat LGI family member 3) | 1 | -0.284 | 76.2 | -0.278 | 91.7 | inactive |
| LGI3 (leucine rich repeat LGI family member 3) | 2 | 0.778 | 97.4 | 0.691 | 90.7 | inactive |
| LGI3 (leucine rich repeat LGI family member 3) | 3 | -1.34 | 55.3 | -0.00701 | 61.9 | inactive |
| H2BC8 (H2B clustered histone 8) | 1 | -0.431 | 73.3 | -0.185 | 86 | inactive |
| H2BC8 (H2B clustered histone 8) | 2 | -1.71 | 47.8 | -0.337 | 58.4 | inactive |
| H2BC8 (H2B clustered histone 8) | 3 | -0.552 | 70.9 | -0.877 | 99.8 | inactive |
| RPL35A (ribosomal protein L35a) | 1 | -2.69 | 28.4 | -0.84 | 39.6 | inactive |
| RPL35A (ribosomal protein L35a) | 2 | -2.6 | 30.2 | -0.97 | 43.5 | inactive |
| RPL35A (ribosomal protein L35a) | 3 | 2.07 | 123 | 1.43 | 94.3 | inactive |
| HOXC6 (homeobox C6) | 1 | -0.501 | 71.9 | -0.906 | 102 | inactive |
| HOXC6 (homeobox C6) | 2 | 0.711 | 96 | 1.07 | 80.9 | inactive |
| HOXC6 (homeobox C6) | 3 | 3.06 | 143 | 2 | 94.1 | active |
| ABHD8 (abhydrolase domain containing 8) | 1 | -2.32 | 35.8 | -3.59 | 103 | inactive |
| ABHD8 (abhydrolase domain containing 8) | 2 | -0.609 | 69.8 | -0.846 | 97.4 | inactive |
| ABHD8 (abhydrolase domain containing 8) | 3 | 0.938 | 101 | 0.614 | 95.6 | inactive |
| MID2 (midline 2) | 1 | -0.251 | 76.9 | -0.52 | 98.5 | inactive |
| MID2 (midline 2) | 2 | -2.03 | 41.4 | -1.88 | 76 | inactive |
| MID2 (midline 2) | 3 | -1.28 | 56.5 | -0.847 | 78.9 | inactive |
| BRPF3 (bromodomain and PHD finger containing 3) | 1 | -0.011 | 81.7 | -0.0198 | 91.7 | inactive |
| BRPF3 (bromodomain and PHD finger containing 3) | 2 | -0.674 | 68.5 | -0.733 | 92.8 | inactive |
| BRPF3 (bromodomain and PHD finger containing 3) | 3 | 0.0446 | 82.8 | 0.265 | 86.3 | inactive |
| IFNA1 (interferon alpha 1) | 1 | 1.38 | 109 | 0.296 | 113 | inactive |
| IFNA1 (interferon alpha 1) | 2 | -0.595 | 70.1 | -0.114 | 80.7 | inactive |
| IFNA1 (interferon alpha 1) | 3 | 1.01 | 102 | 0.964 | 88.4 | inactive |
| SGCE (sarcoglycan epsilon) | 1 | 0.845 | 98.7 | 0.791 | 89.5 | inactive |
| SGCE (sarcoglycan epsilon) | 2 | -0.828 | 65.4 | 0.513 | 63.9 | inactive |
| SGCE (sarcoglycan epsilon) | 3 | -0.942 | 63.2 | -1.03 | 92.5 | inactive |
| EMP3 (epithelial membrane protein 3 (MAM blood group)) | 1 | -1.41 | 53.9 | -1.52 | 89.8 | inactive |
| EMP3 (epithelial membrane protein 3 (MAM blood group)) | 2 | -0.855 | 64.9 | -1.29 | 102 | inactive |
| EMP3 (epithelial membrane protein 3 (MAM blood group)) | 3 | 1.62 | 114 | 1.34 | 89.5 | inactive |
| SOWAHB (sosondowah ankyrin repeat domain family member B) | 1 | 1.92 | 120 | 1.42 | 92.3 | inactive |
| SOWAHB (sosondowah ankyrin repeat domain family member B) | 2 | 0.402 | 89.9 | 0.298 | 92.9 | inactive |
| SOWAHB (sosondowah ankyrin repeat domain family member B) | 3 | 1.09 | 104 | 0.935 | 90.4 | inactive |
| DUSP6 (dual specificity phosphatase 6) | 1 | -0.264 | 76.6 | -0.723 | 104 | inactive |
| DUSP6 (dual specificity phosphatase 6) | 2 | -0.592 | 70.1 | -0.345 | 85.8 | inactive |
| DUSP6 (dual specificity phosphatase 6) | 3 | 0.352 | 88.9 | 0.141 | 95.7 | inactive |
| PTCD1 (pentatricopeptide repeat domain 1) | 1 | -0.0864 | 80.2 | -0.102 | 92 | inactive |
| PTCD1 (pentatricopeptide repeat domain 1) | 2 | 5.04 | 182 | 4.49 | 62.3 | active |
| PTCD1 (pentatricopeptide repeat domain 1) | 3 | -0.033 | 81.2 | 0.324 | 83.3 | inactive |
| RINT1 (RAD50 interactor 1) | 1 | -1.02 | 61.6 | -1.19 | 94 | inactive |
| RINT1 (RAD50 interactor 1) | 2 | 1.18 | 105 | 0.819 | 94.9 | inactive |
| RINT1 (RAD50 interactor 1) | 3 | -0.0936 | 80 | 0.184 | 85.2 | inactive |
| SCGB1C1 (secretoglobin family 1C member 1) | 1 | -0.503 | 71.9 | -0.153 | 83.6 | inactive |
| SCGB1C1 (secretoglobin family 1C member 1) | 2 | -0.338 | 75.2 | -0.304 | 91 | inactive |
| SCGB1C1 (secretoglobin family 1C member 1) | 3 | -2.07 | 40.8 | -1.83 | 73.8 | inactive |
| ZNF263 (zinc finger protein 263) | 1 | -1.04 | 61.3 | -0.908 | 87 | inactive |
| ZNF263 (zinc finger protein 263) | 2 | -1.34 | 55.3 | -1.27 | 86.4 | inactive |
| ZNF263 (zinc finger protein 263) | 3 | 1.6 | 114 | 1.14 | 94.2 | inactive |
| LSM12 (LSM12 homolog) | 1 | 0.0961 | 83.8 | 0.554 | 80.9 | inactive |
| LSM12 (LSM12 homolog) | 2 | -0.0678 | 80.5 | 1.36 | 62.9 | inactive |
| LSM12 (LSM12 homolog) | 3 | 0.244 | 86.7 | 0.686 | 80.9 | inactive |
| PLPP4 (phospholipid phosphatase 4) | 1 | -0.81 | 65.8 | -0.753 | 89.6 | inactive |
| PLPP4 (phospholipid phosphatase 4) | 2 | -1.17 | 58.6 | -1.15 | 88.6 | inactive |
| PLPP4 (phospholipid phosphatase 4) | 3 | -0.813 | 65.7 | -1.33 | 104 | inactive |
| MYH15 (myosin heavy chain 15) | 1 | -0.839 | 65.2 | -0.823 | 90.5 | inactive |
| MYH15 (myosin heavy chain 15) | 2 | -0.603 | 69.9 | -1.12 | 105 | inactive |
| MYH15 (myosin heavy chain 15) | 3 | 2.59 | 133 | 2.31 | 81.2 | inactive |
| KNDC1 (kinase non-catalytic C-lobe domain containing 1) | 1 | 1.58 | 113 | 1.23 | 91.6 | inactive |
| KNDC1 (kinase non-catalytic C-lobe domain containing 1) | 2 | 0.142 | 84.7 | 0.0257 | 94 | inactive |
| KNDC1 (kinase non-catalytic C-lobe domain containing 1) | 3 | -2.63 | 29.5 | -2.34 | 61.1 | inactive |
| OR11A1 (olfactory receptor family 11 subfamily A member 1) | 1 | -1.16 | 58.9 | -0.761 | 80.4 | inactive |
| OR11A1 (olfactory receptor family 11 subfamily A member 1) | 2 | -0.92 | 63.6 | -1.69 | 111 | inactive |
| OR11A1 (olfactory receptor family 11 subfamily A member 1) | 3 | 0.911 | 100 | 0.225 | 105 | inactive |
| MBL2 (mannose binding lectin 2) | 1 | 1.52 | 112 | 1.35 | 87.9 | inactive |
| MBL2 (mannose binding lectin 2) | 2 | -0.113 | 79.6 | 1.1 | 66.6 | inactive |
| MBL2 (mannose binding lectin 2) | 3 | -1.85 | 45 | -2.03 | 85.9 | inactive |
| RARRES1 (retinoic acid receptor responder 1) | 1 | 0.344 | 88.7 | 0.404 | 89.2 | inactive |
| RARRES1 (retinoic acid receptor responder 1) | 2 | -0.301 | 75.9 | -0.334 | 92.6 | inactive |
| RARRES1 (retinoic acid receptor responder 1) | 3 | -0.422 | 73.5 | -0.531 | 94.4 | inactive |
| FAM43A (family with sequence similarity 43 member A) | 1 | 0.289 | 87.6 | -0.332 | 107 | inactive |
| FAM43A (family with sequence similarity 43 member A) | 2 | 0.865 | 99.1 | 0.621 | 94 | inactive |
| FAM43A (family with sequence similarity 43 member A) | 3 | 1.11 | 104 | 0.53 | 101 | inactive |
| SEC61B (SEC61 translocon subunit beta) | 1 | -0.0981 | 79.9 | -0.519 | 102 | inactive |
| SEC61B (SEC61 translocon subunit beta) | 2 | -0.776 | 66.5 | -0.816 | 92 | inactive |
| SEC61B (SEC61 translocon subunit beta) | 3 | -0.578 | 70.4 | -1.47 | 116 | inactive |

Reagents listed above marked active (2):
| gene | reagent | total luciferase, z-score | total luciferase, % of control | luciferase per cell, z-score | viable cells, % of control | call |
| --- | --- | --- | --- | --- | --- | --- |
| HOXC6 (homeobox C6) | 3 | 3.06 | 143 | 2 | 94.1 | active |
| PTCD1 (pentatricopeptide repeat domain 1) | 2 | 5.04 | 182 | 4.49 | 62.3 | active |
